Measured values as given in article PMC13107022.

Amino acid sequences for entries named in this document (tags omitted).
UniProt P09884: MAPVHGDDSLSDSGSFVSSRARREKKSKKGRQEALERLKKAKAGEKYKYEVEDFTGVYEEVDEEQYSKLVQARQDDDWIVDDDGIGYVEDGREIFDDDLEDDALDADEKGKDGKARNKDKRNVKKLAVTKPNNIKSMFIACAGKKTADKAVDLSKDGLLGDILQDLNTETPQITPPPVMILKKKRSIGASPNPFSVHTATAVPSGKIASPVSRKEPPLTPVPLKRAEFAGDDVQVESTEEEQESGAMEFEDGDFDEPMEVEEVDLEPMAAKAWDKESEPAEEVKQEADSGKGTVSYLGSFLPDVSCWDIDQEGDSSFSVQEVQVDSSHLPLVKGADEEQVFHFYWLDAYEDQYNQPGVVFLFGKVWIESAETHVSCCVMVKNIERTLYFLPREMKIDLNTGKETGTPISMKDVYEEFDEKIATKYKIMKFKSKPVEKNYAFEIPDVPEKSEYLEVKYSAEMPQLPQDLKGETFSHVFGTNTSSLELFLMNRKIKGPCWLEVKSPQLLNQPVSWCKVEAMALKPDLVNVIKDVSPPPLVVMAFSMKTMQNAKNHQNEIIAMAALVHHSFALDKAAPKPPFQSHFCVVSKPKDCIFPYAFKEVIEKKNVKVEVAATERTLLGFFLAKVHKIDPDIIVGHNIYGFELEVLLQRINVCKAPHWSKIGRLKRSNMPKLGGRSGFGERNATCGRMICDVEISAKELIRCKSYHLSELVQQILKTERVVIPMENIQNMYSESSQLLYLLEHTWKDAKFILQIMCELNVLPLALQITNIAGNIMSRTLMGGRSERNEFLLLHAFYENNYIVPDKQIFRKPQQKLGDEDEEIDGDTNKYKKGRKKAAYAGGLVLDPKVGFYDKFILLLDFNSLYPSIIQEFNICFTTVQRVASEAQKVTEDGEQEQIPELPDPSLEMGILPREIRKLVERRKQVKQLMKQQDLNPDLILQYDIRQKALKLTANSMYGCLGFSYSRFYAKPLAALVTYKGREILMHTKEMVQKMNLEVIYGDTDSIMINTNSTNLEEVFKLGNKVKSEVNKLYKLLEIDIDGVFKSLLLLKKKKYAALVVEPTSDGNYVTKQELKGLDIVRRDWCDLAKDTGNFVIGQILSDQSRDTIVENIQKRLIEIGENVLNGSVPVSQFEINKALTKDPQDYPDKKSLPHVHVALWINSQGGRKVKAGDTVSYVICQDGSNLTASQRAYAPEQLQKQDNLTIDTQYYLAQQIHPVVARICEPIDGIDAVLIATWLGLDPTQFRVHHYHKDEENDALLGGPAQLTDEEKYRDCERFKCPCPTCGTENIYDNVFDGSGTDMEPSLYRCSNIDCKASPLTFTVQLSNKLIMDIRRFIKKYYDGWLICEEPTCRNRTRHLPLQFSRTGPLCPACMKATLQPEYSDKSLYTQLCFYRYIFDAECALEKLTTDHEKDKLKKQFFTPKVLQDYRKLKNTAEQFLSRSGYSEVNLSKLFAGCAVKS
UniProt O00505: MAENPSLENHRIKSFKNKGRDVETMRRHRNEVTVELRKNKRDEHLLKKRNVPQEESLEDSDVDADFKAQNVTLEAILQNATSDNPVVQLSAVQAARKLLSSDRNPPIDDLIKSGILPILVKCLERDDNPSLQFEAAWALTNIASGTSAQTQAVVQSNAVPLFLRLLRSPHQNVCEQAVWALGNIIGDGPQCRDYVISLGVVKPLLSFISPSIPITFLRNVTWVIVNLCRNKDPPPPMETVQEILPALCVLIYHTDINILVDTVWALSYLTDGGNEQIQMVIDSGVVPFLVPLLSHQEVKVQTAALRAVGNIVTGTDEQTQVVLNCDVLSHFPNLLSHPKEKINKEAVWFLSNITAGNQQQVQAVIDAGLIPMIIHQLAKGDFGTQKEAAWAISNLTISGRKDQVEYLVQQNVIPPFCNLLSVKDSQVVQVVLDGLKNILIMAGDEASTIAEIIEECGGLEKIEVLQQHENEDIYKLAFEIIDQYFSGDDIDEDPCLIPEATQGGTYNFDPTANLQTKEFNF
UniProt Q9Y4B6: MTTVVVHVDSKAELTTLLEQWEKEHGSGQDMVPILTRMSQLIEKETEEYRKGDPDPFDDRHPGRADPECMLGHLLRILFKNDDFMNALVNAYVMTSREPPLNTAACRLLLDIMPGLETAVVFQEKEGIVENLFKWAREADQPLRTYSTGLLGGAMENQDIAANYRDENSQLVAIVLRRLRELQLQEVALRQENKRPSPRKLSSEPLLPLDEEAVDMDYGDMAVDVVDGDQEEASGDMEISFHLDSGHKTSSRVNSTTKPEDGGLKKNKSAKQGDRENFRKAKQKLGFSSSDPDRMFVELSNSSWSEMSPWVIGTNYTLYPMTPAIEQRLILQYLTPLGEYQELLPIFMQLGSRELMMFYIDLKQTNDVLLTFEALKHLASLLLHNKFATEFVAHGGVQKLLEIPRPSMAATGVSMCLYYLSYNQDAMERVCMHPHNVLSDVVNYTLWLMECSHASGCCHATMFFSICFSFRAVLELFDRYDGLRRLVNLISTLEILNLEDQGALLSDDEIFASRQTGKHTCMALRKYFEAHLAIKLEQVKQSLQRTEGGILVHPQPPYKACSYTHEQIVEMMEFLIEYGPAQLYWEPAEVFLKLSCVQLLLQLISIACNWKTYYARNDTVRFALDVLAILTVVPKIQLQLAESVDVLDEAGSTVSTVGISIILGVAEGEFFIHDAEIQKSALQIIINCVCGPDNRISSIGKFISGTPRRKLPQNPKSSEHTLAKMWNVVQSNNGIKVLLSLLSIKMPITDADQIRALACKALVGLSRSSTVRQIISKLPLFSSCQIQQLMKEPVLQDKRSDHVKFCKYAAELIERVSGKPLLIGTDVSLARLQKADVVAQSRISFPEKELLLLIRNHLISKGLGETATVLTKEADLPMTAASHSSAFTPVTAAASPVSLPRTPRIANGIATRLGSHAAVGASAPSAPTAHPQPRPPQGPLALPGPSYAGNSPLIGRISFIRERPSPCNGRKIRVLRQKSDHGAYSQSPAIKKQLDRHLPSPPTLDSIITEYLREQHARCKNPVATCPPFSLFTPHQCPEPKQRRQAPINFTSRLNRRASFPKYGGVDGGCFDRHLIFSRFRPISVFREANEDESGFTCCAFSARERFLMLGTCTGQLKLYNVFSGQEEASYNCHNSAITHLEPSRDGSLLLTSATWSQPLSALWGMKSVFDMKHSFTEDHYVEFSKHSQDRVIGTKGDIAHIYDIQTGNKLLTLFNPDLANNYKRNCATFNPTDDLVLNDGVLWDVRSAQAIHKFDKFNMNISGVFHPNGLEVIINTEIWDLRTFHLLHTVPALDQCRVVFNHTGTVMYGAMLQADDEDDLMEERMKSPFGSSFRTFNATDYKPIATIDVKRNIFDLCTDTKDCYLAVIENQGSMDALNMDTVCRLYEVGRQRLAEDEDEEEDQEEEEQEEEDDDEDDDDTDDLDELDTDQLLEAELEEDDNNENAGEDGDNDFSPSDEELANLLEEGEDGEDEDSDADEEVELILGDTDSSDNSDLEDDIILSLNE
UniProt Q14186: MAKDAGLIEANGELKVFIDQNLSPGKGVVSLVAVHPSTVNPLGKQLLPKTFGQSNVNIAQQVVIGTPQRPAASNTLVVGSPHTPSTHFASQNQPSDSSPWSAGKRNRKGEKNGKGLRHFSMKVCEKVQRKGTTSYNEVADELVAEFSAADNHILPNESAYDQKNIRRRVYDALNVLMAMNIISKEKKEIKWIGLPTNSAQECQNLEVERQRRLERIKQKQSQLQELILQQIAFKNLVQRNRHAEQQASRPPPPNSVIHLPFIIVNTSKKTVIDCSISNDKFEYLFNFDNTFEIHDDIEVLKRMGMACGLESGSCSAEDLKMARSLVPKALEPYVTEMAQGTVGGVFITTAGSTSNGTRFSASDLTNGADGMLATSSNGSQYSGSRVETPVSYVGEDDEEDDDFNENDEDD

T1: TurboID-RAG1 (TurboID fused to the N-terminus of full-length human RAG1, C-terminal HA tag) (human) (UniProt P15918)
T1 sequence: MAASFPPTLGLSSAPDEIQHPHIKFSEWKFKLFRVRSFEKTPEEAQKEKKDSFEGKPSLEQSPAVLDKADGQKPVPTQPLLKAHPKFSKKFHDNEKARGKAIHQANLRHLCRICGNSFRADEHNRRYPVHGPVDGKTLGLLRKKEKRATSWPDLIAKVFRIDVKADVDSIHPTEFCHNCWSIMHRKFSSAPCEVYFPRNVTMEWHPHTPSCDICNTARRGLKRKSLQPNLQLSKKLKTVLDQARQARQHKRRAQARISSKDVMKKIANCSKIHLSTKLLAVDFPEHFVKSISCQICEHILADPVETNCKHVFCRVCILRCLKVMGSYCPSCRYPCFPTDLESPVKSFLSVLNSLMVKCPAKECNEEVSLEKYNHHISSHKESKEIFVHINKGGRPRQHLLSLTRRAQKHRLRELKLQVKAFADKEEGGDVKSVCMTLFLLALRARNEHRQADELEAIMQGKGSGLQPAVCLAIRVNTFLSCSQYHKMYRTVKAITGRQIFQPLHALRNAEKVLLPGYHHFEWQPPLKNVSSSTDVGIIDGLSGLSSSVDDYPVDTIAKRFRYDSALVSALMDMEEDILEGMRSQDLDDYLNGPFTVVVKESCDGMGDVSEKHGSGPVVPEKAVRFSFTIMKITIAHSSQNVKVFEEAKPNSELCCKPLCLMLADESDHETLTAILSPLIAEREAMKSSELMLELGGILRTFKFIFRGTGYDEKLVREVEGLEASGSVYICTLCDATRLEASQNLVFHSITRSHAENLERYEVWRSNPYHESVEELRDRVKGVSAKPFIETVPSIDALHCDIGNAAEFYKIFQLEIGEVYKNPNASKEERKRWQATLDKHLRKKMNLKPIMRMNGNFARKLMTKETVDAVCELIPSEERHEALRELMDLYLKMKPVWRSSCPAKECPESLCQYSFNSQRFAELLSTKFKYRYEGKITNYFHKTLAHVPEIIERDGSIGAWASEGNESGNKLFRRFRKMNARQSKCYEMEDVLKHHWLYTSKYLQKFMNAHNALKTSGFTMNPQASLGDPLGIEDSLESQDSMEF

T2: TurboID-RAG2 (TurboID fused to the N-terminus of full-length human RAG2) (human) (UniProt P55895)
T2 sequence: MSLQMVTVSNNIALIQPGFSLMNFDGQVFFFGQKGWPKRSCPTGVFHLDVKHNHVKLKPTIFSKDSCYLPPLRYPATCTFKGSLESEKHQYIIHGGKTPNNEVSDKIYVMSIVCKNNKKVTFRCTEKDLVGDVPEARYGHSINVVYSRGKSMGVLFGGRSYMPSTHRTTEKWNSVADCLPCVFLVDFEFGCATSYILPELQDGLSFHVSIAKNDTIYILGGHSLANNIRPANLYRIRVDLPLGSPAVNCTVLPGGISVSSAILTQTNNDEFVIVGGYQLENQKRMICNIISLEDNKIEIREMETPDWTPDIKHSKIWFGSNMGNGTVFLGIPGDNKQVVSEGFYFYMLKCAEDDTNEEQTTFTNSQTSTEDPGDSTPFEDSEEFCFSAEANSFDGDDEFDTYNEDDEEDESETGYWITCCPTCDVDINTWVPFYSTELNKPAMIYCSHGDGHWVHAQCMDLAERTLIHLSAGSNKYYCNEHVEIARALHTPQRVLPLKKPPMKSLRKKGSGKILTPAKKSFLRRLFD


Legend:
Test in all cases: proximity labelling; TurboID fused to RAG1 or RAG2 (co-expressed with the other subunit) in HEK293T; 50 uM D-biotin, 37°C, 15 min; lysis with 8 M urea, streptavidin beads, on-bead trypsin, label-free LC-MS/MS; control TurboID-HA alone; three biological replicates
[1] = biological target: T1, TurboID-RAG1 (TurboID fused to the N-terminus of full-length human RAG1, C-terminal HA tag) (human)
[2] = biological target: T2, TurboID-RAG2 (TurboID fused to the N-terminus of full-length human RAG2) (human)
[3] = biological target: T1, TurboID-RAG1 (TurboID fused to the N-terminus of full-length human RAG1, C-terminal HA tag) (human); remark: listed apart in the source

| Molecule | binding [1] | other results |
| --- | --- | --- |
| POLA1, endogenous (from UniProt P09884 1-1462) | binds |  |
| KPNA3 (Karyopherin Subunit Alpha 3), endogenous (from UniProt O00505 1-521) | binds |  |
| NUP133, endogenous (protein, UniProt Q8WUM0 1-1156) MFPAAPSPRTPGTGSRRGPLAGLGPGSTPRTASRKGLPLGSAVSSPVLFSPVGRRSSLSSRGTPTRMFPHHSITESVNYDVKTFGSSLPVKVMEALTLAEVDDQLTINIDEGGWACLVCKEKLIIWKIALSPITKLSVCKELQLPPSDFHWSADLVALSYSSPSGEAHSTQAVAVMVATREGSIRYWPSLAGEDTYTEAFVDSGGDKTYSFLTAVQGGSFILSSSGSQLIRLIPESSGKIHQHILPQGQGMLSGIGRKVSSLFGILSPSSDLTLSSVLWDRERSSFYSLTSSNISKWELDDSSEKHAYSWDINRALKENITDAIWGSESNYEAIKEGVNIRYLDLKQNCDGLVILAAAWHSADNPCLIYYSLITIEDNGCQMSDAVTVEVTQYNPPFQSEDLILCQLTVPNFSNQTAYLYNESAVYVCSTGTGKFSLPQEKIVFNAQGDSVLGAGACGGVPIIFSRNSGLVSITSRENVSILAEDLEGSLASSVAGPNSESMIFETTTKNETIAQEDKIKLLKAAFLQYCRKDLGHAQMVVDELFSSHSDLDSDSELDRAVTQISVDLMDDYPASDPRWAESVPEEAPGFSNTSLIILHQLEDKMKAHSFLMDFIHQVGLFGRLGSFPVRGTPMATRLLLCEHAEKLSAAIVLKNHHSRLSDLVNTAILIALNKREYEIPSNLTPADVFFREVSQVDTICECLLEHEEQVLRDAPMDSIEWAEVVINVNNILKDMLQAASHYRQNRNSLYRREESLEKEPEYVPWTATSGPGGIRTVIIRQHEIVLKVAYPQADSNLRNIVTEQLVALIDCFLDGYVSQLKSVDKSSNRERYDNLEMEYLQKRSDLLSPLLSLGQYLWAASLAEKYCDFDILVQMCEQTDNQSRLQRYMTQFADQNFSDFLFRWYLEKGKRGKLLSQPISQHGQLANFLQAHEHLSWLHEINSQELEKAHATLLGLANMETRYFAKKKTLLGLSKLAALASDFSEDMLQEKIEEMAEQERFLLHQETLPEQLLAEKQLNLSAMPVLTAPQLIGLYICEENRRANEYDFKKALDLLEYIDEEEDININDLKLEILCKALQRDNWSSSDGKDDPIEVSKDSIFVKILQKLLKDGIQLSEYLPEVKDLLQADQLGSLKSNPYFEFVLKANYEYYVQGQI |  | binding [2]: binds |
| RB1, endogenous (protein, UniProt P06400 1-928) MPPKTPRKTAATAAAAAAEPPAPPPPPPPEEDPEQDSGPEDLPLVRLEFEETEEPDFTALCQKLKIPDHVRERAWLTWEKVSSVDGVLGGYIQKKKELWGICIFIAAVDLDEMSFTFTELQKNIEISVHKFFNLLKEIDTSTKVDNAMSRLLKKYDVLFALFSKLERTCELIYLTQPSSSISTEINSALVLKVSWITFLLAKGEVLQMEDDLVISFQLMLCVLDYFIKLSPPMLLKEPYKTAVIPINGSPRTPRRGQNRSARIAKQLENDTRIIEVLCKEHECNIDEVKNVYFKNFIPFMNSLGLVTSNGLPEVENLSKRYEEIYLKNKDLDARLFLDHDKTLQTDSIDSFETQRTPRKSNLDEEVNVIPPHTPVRTVMNTIQQLMMILNSASDQPSENLISYFNNCTVNPKESILKRVKDIGYIFKEKFAKAVGQGCVEIGSQRYKLGVRLYYRVMESMLKSEEERLSIQNFSKLLNDNIFHMSLLACALEVVMATYSRSTSQNLDSGTDLSFPWILNVLNLKAFDFYKVIESFIKAEGNLTREMIKHLERCEHRIMESLAWLSDSPLFDLIKQSKDREGPTDHLESACPLNLPLQNNHTAADMYLSPVRSPKKKGSTTRVNSTANAETQATSAFQTQKPLKSTSLSLFYKKVYRLAYLRLNTLCERLLSEHPELEHIIWTLFQHTLQNEYELMRDRHLDQIMMCSMYGICKVKNIDLKFKIIVTAYKDLPHAVQETFKRVLIKEEEYDSIIVFYNSVFMQRLKTNILQYASTRPPTLSPIPHIPRSPYKFPSSPLRIPGGNIYISPLKSPYKISEGLPTPTKMTPRSRILVSIGESFGTSEKFQKINQMVCNSDRVLKRSAEGSNPPKPLKKLRFDIEGSDEADGSKHLPGESKFQQKLAEMTSTRTRMQKQKMNDSMDTSNKEEK |  | binding [3]: binds |
| NUP37 (Nucleoporin 37), endogenous (protein, UniProt Q8NFH4 1-326) MKQDASRNAAYTVDCEDYVHVVEFNPFENGDSGNLIAYGGNNYVVIGTCTFQEEEADVEGIQYKTLRTFHHGVRVDGIAWSPETRLDSLPPVIKFCTSAADMKIRLFTSDLQDKNEYKVLEGHTDFINGLVFDPKEGQEIASVSDDHTCRIWNLEGVQTAHFVLHSPGMSVCWHPEETFKLMVAEKNGTIRFYDLLAQQAILSLESEQVPLMSAHWCLKNTFKVGAVAGNDWLIWDITRSSYPQNKRPVHMDRACLFRWSTISENLFATTGYPGKMASQFQIHHLGHPQPILMGSVAVGSGLSWHRTLPLCVIGGDHKLLFWVTEV |  | binding [2]: binds |

Further lines, with some results ahead:

| binding [1] | Molecule | other results |
| --- | --- | --- |
| binds | VprBP (Vpr-binding protein), endogenous (from UniProt Q9Y4B6 1-1507) |  |
| binds | TFDP1, endogenous (from UniProt Q14186 1-410) |  |

Like-named read-outs stand apart in the source and are kept apart here. No constants are given. Whether binding was seen depends on the method and setting. Binding seen in cells or lysates may run through a third protein. These calls come from enrichment with a bait or labelling near it, and not all partners need be listed. Sequences can lack the tags named with a protein.
